{
  "sequences": {"note": "The chains behind the UniProt entries cited, without tags or fusion partners. Where a name states a change or a piece, a line headed by the entry shows the natural chain unless it says otherwise.", "UniProt P21291": "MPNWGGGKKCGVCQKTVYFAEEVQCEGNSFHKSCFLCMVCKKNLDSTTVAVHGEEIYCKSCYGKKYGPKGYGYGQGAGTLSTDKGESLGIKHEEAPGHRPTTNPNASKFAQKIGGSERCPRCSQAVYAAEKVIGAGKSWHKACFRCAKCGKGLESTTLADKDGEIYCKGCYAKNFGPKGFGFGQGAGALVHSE", "UniProt Q5JPH6": "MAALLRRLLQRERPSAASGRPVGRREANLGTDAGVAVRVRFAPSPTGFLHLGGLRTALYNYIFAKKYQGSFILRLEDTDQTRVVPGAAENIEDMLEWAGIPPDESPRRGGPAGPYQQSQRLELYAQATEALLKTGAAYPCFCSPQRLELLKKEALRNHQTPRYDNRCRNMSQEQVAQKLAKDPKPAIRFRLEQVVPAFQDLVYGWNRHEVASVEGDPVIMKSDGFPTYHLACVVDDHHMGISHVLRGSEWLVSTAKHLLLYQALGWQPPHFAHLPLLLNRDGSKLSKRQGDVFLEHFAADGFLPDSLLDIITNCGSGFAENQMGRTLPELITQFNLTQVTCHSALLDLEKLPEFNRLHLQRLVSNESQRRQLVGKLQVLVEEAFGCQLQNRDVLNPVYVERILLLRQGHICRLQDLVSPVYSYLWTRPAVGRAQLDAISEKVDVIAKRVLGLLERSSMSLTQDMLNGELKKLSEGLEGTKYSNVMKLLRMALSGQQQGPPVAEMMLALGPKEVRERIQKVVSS", "UniProt Q9NR28": "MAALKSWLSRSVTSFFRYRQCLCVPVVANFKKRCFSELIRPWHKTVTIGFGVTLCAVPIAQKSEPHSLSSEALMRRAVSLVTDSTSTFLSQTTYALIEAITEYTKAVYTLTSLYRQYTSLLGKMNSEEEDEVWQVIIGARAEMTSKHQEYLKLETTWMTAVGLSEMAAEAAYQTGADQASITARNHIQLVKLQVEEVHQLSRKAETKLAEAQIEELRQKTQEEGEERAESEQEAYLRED", "UniProt Q96SW2": "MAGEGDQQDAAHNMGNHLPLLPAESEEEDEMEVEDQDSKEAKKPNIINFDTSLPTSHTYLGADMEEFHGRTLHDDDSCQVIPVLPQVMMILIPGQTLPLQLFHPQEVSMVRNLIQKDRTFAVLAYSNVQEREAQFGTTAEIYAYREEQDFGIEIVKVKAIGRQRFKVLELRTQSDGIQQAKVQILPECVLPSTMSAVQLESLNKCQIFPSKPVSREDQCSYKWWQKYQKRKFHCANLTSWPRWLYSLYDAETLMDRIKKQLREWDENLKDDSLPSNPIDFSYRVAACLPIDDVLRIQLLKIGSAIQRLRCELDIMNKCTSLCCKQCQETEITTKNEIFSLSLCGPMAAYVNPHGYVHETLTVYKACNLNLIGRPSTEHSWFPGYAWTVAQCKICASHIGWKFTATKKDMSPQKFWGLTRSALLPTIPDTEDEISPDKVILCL", "UniProt Q14919": "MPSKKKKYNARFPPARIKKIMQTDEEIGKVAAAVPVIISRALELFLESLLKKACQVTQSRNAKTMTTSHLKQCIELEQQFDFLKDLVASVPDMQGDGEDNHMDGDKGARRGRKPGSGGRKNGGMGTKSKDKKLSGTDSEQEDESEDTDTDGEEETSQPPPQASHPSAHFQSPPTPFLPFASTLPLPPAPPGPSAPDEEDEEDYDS", "UniProt Q92620": "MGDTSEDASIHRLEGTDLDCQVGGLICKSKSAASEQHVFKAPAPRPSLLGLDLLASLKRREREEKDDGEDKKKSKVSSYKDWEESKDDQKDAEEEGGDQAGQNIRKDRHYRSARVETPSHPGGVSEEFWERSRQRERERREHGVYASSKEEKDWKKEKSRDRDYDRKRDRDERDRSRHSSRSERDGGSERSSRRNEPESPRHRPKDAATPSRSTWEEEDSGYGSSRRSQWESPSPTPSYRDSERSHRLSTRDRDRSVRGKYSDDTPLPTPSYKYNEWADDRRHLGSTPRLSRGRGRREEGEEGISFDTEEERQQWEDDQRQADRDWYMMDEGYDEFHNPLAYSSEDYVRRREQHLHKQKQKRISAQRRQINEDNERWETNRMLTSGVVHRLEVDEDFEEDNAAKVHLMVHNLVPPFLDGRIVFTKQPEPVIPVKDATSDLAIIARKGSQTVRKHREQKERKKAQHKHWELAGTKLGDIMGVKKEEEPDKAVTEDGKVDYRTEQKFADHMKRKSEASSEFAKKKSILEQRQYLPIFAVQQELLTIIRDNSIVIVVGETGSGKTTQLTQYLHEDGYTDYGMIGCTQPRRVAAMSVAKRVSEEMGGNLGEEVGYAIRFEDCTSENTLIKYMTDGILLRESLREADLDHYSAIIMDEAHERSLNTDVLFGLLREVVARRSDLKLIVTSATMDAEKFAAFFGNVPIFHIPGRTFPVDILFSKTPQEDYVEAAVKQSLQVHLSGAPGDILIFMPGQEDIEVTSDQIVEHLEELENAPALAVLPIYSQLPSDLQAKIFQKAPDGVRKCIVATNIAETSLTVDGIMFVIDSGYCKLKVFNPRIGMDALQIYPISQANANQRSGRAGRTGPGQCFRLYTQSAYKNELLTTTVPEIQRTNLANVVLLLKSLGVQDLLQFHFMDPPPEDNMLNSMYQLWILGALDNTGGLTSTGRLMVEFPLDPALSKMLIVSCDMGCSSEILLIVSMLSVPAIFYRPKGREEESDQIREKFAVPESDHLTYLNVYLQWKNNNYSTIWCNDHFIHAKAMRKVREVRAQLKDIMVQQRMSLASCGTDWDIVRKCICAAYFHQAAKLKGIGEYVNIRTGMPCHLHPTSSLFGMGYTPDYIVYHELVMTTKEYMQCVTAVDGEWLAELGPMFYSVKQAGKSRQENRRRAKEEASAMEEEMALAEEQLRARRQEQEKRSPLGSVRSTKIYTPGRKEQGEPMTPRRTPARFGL", "UniProt Q9NVR5": "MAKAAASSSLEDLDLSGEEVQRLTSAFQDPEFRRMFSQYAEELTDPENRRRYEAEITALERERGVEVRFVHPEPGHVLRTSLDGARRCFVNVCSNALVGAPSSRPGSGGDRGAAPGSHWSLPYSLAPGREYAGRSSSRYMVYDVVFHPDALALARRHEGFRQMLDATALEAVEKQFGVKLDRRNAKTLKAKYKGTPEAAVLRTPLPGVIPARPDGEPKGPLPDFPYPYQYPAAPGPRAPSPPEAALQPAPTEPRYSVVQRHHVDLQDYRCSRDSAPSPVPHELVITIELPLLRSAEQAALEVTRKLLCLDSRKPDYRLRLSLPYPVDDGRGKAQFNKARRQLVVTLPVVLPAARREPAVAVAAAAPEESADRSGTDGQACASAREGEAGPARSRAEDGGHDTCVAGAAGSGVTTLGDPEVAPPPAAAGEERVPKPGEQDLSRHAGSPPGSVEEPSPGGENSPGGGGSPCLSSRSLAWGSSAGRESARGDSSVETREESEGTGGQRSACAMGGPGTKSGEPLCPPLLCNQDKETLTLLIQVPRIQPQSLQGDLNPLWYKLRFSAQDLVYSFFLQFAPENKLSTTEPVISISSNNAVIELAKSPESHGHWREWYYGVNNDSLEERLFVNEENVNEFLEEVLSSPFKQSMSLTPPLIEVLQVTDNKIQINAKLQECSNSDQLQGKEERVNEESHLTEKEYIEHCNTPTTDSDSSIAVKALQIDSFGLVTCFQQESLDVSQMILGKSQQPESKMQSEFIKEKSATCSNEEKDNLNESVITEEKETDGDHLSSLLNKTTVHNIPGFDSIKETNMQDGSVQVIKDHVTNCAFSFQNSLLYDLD", "UniProt P48729": "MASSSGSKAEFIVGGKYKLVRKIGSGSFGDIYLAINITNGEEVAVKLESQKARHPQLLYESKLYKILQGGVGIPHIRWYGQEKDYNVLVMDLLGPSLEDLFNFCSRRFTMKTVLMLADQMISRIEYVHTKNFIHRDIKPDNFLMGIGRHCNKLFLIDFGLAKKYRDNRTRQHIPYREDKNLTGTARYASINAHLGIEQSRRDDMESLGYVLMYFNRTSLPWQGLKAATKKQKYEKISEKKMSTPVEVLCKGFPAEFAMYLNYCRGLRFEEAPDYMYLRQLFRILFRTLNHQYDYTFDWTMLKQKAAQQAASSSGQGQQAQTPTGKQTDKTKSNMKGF", "UniProt P67870, whole entry": "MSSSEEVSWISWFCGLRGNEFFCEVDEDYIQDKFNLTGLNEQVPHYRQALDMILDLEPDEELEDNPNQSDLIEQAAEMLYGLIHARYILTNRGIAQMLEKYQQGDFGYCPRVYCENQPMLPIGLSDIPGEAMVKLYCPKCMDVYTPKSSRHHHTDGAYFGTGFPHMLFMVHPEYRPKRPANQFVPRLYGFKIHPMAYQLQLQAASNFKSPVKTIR", "UniProt Q6P3S1": "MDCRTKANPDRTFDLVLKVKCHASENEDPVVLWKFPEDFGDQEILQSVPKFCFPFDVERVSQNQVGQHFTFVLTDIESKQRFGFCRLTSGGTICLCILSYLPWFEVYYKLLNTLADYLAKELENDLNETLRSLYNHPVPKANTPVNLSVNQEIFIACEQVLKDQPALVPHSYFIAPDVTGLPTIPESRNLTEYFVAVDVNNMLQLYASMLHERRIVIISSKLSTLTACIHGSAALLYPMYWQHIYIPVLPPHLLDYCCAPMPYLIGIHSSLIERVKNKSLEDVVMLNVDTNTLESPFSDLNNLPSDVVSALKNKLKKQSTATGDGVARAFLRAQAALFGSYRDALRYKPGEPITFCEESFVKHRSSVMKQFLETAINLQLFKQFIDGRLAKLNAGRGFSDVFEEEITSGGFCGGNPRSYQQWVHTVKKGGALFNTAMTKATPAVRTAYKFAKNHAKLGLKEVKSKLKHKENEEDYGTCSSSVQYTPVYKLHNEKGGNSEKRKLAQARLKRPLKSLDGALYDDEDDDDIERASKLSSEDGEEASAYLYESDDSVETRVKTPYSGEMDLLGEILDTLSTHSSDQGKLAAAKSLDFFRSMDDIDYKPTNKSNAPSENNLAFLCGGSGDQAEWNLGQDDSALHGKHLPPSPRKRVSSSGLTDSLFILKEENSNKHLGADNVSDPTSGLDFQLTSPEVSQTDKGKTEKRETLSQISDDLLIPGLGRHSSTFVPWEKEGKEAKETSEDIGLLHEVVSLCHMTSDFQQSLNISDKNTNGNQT", "UniProt O75935, whole entry": "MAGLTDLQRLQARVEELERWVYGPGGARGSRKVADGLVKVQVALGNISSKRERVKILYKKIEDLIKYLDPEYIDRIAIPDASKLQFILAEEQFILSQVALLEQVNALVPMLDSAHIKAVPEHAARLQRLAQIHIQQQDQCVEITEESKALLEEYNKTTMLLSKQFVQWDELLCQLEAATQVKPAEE", "UniProt Q13838, whole entry": "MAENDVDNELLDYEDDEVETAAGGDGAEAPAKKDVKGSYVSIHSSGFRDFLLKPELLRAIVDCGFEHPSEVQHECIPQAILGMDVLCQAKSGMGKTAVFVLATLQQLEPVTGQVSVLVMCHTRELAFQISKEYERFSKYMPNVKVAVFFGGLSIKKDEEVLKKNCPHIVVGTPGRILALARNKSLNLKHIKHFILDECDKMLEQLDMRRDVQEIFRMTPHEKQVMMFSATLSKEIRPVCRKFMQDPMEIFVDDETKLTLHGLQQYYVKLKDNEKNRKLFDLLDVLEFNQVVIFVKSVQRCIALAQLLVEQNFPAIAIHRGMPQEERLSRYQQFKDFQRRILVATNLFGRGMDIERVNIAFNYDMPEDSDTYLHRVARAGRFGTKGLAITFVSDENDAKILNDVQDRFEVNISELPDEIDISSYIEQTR", "UniProt Q01459": "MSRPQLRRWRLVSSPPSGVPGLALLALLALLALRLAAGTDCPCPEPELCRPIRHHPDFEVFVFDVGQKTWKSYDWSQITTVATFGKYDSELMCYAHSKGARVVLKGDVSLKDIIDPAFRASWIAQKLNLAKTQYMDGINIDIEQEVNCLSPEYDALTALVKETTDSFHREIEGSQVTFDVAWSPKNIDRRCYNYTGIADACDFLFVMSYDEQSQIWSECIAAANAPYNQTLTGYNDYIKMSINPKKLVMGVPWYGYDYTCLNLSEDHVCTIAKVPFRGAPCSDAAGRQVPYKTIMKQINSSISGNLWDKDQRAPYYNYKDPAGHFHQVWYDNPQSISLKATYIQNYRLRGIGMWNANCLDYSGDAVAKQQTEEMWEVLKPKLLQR", "UniProt Q5TAQ9": "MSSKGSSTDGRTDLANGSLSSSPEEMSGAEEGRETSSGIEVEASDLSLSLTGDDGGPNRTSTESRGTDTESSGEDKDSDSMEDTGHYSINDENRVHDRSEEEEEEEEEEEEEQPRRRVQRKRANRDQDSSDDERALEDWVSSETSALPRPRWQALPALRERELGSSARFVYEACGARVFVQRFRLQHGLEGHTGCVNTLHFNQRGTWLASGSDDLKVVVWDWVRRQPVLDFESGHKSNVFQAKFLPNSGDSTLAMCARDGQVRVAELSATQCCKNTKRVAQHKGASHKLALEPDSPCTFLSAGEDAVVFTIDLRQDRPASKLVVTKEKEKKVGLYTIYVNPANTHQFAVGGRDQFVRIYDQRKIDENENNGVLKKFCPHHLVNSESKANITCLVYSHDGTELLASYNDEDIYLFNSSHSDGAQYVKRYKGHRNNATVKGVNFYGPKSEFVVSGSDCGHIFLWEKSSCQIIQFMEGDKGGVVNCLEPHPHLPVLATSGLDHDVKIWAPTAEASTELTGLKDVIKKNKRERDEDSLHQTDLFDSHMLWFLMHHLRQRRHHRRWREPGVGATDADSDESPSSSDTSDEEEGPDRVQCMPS"},
  "source": "the supplement of paper PMC7666118",
  "note": "Some of the results follow.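 Rule for the calls: active = dose-dependent thermal stabilisation significant by F-test of dose-response against flat model at 10% FDR; inactive = not significant.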",
  "data": [
    {"compound": "Nc1nc2c(ncn2[C@@H]2O[C@H](COP(=O)(O)OP(=O)(O)OP(=O)(O)O)[C@@H](O)[C@H]2O)c(=O)[nH]1", "assay": "dose-dependent thermal stabilisation call (2D-TPP, DLPTP, 10% FDR) (binary (1 = stabilised)); higher = stabilised by the compound", "details": "system: Jurkat gel-filtered lysate; concentration range 1-500 µM", "values": [
      {"target": "CRY1 (UniProt Q16526)", "dose-dependent thermal stabilisation call": "inactive: 0"},
      {"target": "CSRP1 (UniProt P21291)", "dose-dependent thermal stabilisation call": "inactive: 0"},
      {"target": "DDX59 (UniProt Q5T1V6)", "dose-dependent thermal stabilisation call": "inactive: 0"},
      {"target": "EARS2 (UniProt Q5JPH6)", "dose-dependent thermal stabilisation call": "inactive: 0"},
      {"target": "DCP1A (UniProt Q9NPI6)", "dose-dependent thermal stabilisation call": "inactive: 0"},
      {"target": "CXXC1 (UniProt Q9P0U4)", "dose-dependent thermal stabilisation call": "inactive: 0"},
      {"target": "CRNKL1 (UniProt Q9BZJ0)", "dose-dependent thermal stabilisation call": "inactive: 0"},
      {"target": "DAP3 (UniProt P51398)", "dose-dependent thermal stabilisation call": "inactive: 0"},
      {"target": "EEF1AKMT2 (UniProt Q5JPI9)", "dose-dependent thermal stabilisation call": "inactive: 0"},
      {"target": "DIABLO (UniProt Q9NR28)", "dose-dependent thermal stabilisation call": "inactive: 0"},
      {"target": "CRBN (UniProt Q96SW2)", "dose-dependent thermal stabilisation call": "inactive: 0"},
      {"target": "DRAP1 (UniProt Q14919)", "dose-dependent thermal stabilisation call": "inactive: 0"},
      {"target": "DHX38 (UniProt Q92620)", "dose-dependent thermal stabilisation call": "active: 1"},
      {"target": "CSTF1 (UniProt Q05048)", "dose-dependent thermal stabilisation call": "inactive: 0"},
      {"target": "CTBP1 (UniProt Q13363)", "dose-dependent thermal stabilisation call": "inactive: 0"},
      {"target": "DNAAF2 (UniProt Q9NVR5)", "dose-dependent thermal stabilisation call": "inactive: 0"},
      {"target": "CSNK1A1 (UniProt P48729)", "dose-dependent thermal stabilisation call": "active: 1"},
      {"target": "CSNK2B (UniProt P67870)", "dose-dependent thermal stabilisation call": "active: 1"},
      {"target": "DCAF1 (UniProt Q9Y4B6)", "dose-dependent thermal stabilisation call": "inactive: 0"},
      {"target": "DENND1B (UniProt Q6P3S1)", "dose-dependent thermal stabilisation call": "inactive: 0"},
      {"target": "DOCK9 (UniProt Q9BZ29)", "dose-dependent thermal stabilisation call": "inactive: 0"},
      {"target": "DCTN3 (UniProt O75935)", "dose-dependent thermal stabilisation call": "inactive: 0"},
      {"target": "DDX39B (UniProt Q13838)", "dose-dependent thermal stabilisation call": "inactive: 0"},
      {"target": "CTBS (UniProt Q01459)", "dose-dependent thermal stabilisation call": "inactive: 0"},
      {"target": "DCAF8 (UniProt Q5TAQ9)", "dose-dependent thermal stabilisation call": "inactive: 0"},
      {"target": "CRIPT (UniProt Q9P021)", "dose-dependent thermal stabilisation call": "inactive: 0"},
      {"target": "CWC27 (UniProt Q6UX04)", "dose-dependent thermal stabilisation call": "inactive: 0"}
    ]}
  ]
}
